Measurements published in patent US5612220.
Construct, isoform or probe ends are uncertain for at least one entry. For some assays here: Tags and fusion partners may be left off the protein sequences shown.

Experiments:
Oct-2 = assay: EMSA; settings: protein translated in vitro; label: 32P
[1] = molecular target: T1, Sprm-1 (Rattus norvegicus) (UniProt P56225); assay: SELEX; settings: SAAB, four rounds; preferred site, higher affinity than H-O+; purified recombinant protein; protein details: GST fusion, glutathione affinity purified
T1 sequence (limits assumed): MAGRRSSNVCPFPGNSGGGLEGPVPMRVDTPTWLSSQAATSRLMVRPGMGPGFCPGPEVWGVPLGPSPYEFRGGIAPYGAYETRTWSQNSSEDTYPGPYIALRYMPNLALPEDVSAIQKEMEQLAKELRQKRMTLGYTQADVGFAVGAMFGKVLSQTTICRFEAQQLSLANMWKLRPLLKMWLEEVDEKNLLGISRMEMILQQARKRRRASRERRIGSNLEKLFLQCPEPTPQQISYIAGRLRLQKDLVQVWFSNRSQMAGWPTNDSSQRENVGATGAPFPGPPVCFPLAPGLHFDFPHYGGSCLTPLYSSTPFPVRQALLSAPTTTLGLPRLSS

Row | Sequence | binding result (Oct-2) | selection result [1]
1 | TTTGAAAATATGTGTAATATGTAAAACATTTTG (double strand) [I12 Oct site] | binds | –
2 | GCATATGTTAAT (double strand) [SAAB-selected Sprm-1 preferred site] | – | selected
